Data on one sequence can be found in article PMC5730568.

The chains behind the UniProt entries cited, without tags or fusion partners. Residues count along the entry.
UniProt Q07955, 1-186: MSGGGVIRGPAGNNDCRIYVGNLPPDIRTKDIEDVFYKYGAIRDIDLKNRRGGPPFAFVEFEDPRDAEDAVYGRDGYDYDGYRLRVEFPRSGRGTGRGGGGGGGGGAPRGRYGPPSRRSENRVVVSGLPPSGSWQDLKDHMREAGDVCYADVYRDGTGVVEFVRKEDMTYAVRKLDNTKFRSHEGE

This data set has as its target SRSF1-His6 (23 kDa) (UniProt Q07955). The experiment in a line: EMSA. The settings on record: 0.5 uM 2'OMe-PS-Mbnl1 (S10); recombinant protein; residues 1-186; protein details: His6 (C-term as stated); label: 5'-32P; probe letters rebuilt from the primers and the genome.

Construct, isoform or probe ends are uncertain for at least one entry. Weaker means in comparison with the reference protein, sequence or condition of that experiment.

Take “GGGUUGGUACUAAGAAGUGCCUUUCCUGACGUCUCUGCUGCUUGGAACCGCUUCUAGAGCAGCCUCUGCUUUUGCCUUGCUUGCUGCCAGCUAGACUGACGACAGCACAUCCGCCCUCCACCUCUAGCCCAGACACCCCAUUUCUACUUCUAAUCAGGAGAAAAGCUCUGAGUAUCUGCCAUUGCCCUAGG [Mbnl1-RNA]”: the binding result is “binds more weakly”.
